Test results taken from PubChem BioAssay AID493014 (National Center for Advancing Translational Sciences (NCATS), 2011).
This is one part of the list. Shown are side measurements of this screen, not its main read-out; they come without a call. Most of these compounds were active or inconclusive in the main read-out, so they are no random draw. Potencies come from curve fits of mixed quality, noted in brackets.

Assay: qHTS Assay to Find Inhibitors of Chronic Active B-Cell Receptor Signaling
Settings: ABC-DLBCL IkBa-CBG/CBR reporter, luminescence ratio (green luciferase fused to IkBa over red control in TMD8 lymphoma cells), 4 h
How it was run: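 TMD8 human ABC-DLBCL cells with doxycycline-inducible IκBα–green luciferase fusion and unfused red luciferase, in 0.5% FBS medium; compounds up to 46 uM, 4 h at 37C. Green/red luminescence ratio, filter-overlap corrected, fitted to concentration-response curves.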

[1] = measured here: CBR red luminescence, cell number

SMILES | AC50 [1] | AC50 (measured here: IkBa-CBG green luminescence)
O=C(NCC1CCCO1)C1CCCN(S(=O)(=O)c2ccc(Cl)cc2)C1 (stereo unspecified) | 35.5 µM [falling, single point] | –
N/C(=N\OC(=O)Nc1ccccc1)c1ncc([N+](=O)[O-])s1 | 1.41 µM [rising, partial curve, poor fit] | –
O=C(Nc1nc(=O)c2ccccc2s1)c1ccc(Cl)cc1 | 0.259 µM [falling, full curve] | –
COc1ccc(-n2cc(CNCCc3nc(C)cc(C)n3)c(-c3ccccc3Cl)n2)cc1 | 3.55 µM [falling, partial curve, poor fit] | –
COc1ccc2[nH]c3c(=O)n(CCCCC(=O)N4CCC(C(N)=O)CC4)c(=S)[nH]c3c2c1 | 10 µM [falling, partial curve, poor fit] | –
COc1ccc2nc(NC(=O)c3ccccc3-c3ccccc3C(=O)O)sc2c1 | 6.31 µM [falling, full curve] | –
O=C(Nc1ccc(Oc2ccsc2C(=O)O)cc1)c1ccccc1 | 14.1 µM [falling, partial curve, poor fit] | –
CCOC(=O)c1cnc2ccc(OC)cc2c1Nc1ccc2c(c1)OCCO2 | 20 µM [falling, single point] | –
O=C(N/N=C/c1cccs1)c1n[nH]c2c1CCC2 | 8.2 µM [falling, partial curve] | –
COc1ccccc1NC(=O)/C=C1\NC(=O)CS1 | 0.316 µM [falling, full curve, poor fit] | –
CC(N)(C(=O)O)c1cccc(OCc2cccc(Cl)c2)c1 (stereo unspecified) | 11.2 µM [rising, partial curve, poor fit] | –
CC(C)C[C@H](NC(=O)c1nc[nH]c1C(=O)NCCCCCNC(=O)OC(C)(C)C)C(=O)OCc1ccccc1 | 17.8 µM [falling, single point] | –
CC(=O)C1=C(C)NC(=O)CC1c1ccc(F)cc1 (stereo unspecified) | 14.1 µM [rising, single point] | –
Cc1nnc(SCc2cc(=O)[nH]c(=S)[nH]2)s1 | 0.794 µM [rising, full curve, poor fit] | –
COc1cc(/C=C(\C#N)C(=O)Nc2cccc3ncccc23)cc(OC)c1OC | 23.1 µM [falling, partial curve, poor fit] | –
COc1cc(C2C(C(=O)OC(C)C)=C(C)Nc3ncnn32)cc(OC)c1OC (stereo unspecified) | 6.51 µM [rising, single point] | –
CC(C)[C@H](NC(=O)[C@@H]1CSCN1C(=O)OC(C)(C)C)C(=O)NCC1CCC(C(=O)O)CC1 (stereo partly specified) | 0.82 µM [rising, partial curve, poor fit] | –
CN(C)C(=O)COc1ccc(S(=O)(=O)c2ccc(OCC(=O)N(C)C)cc2)cc1 | 14.1 µM [rising, single point] | –
O=C(c1cccs1)n1nc(NCc2ccccc2)nc1NCc1ccccc1 | – | 16.4 µM [rising, partial curve, poor fit]
S=C(NCCCN1CCOCC1)Nc1ccc(-c2nc3ccccc3[nH]2)cc1 | 20 µM [falling, single point] | –
CC(Sc1nc2ccccc2[nH]1)C(=O)Nc1ccc2c(c1)OCCO2 (stereo unspecified) | 12.6 µM [falling, partial curve, poor fit] | –

SMILES | AC50 [1] | AC50 (measured here: IkBa-CBG green luminescence)
CNS(=O)(=O)c1cc(-c2nnc(Nc3ccc(NC(C)=O)cc3)c3ccccc23)ccc1C | 7.94 µM [falling, partial curve, poor fit] | –
O=C1N=c2ccccc2=C1c1sc(=S)n(NC(=O)c2ccccc2)c1O | 1.58 µM [falling, partial curve, poor fit] | –
Cc1cc(Cl)ccc1OCC(=O)NCC(=O)N/N=C/c1ccco1 | 35.5 µM [rising, single point] | –
Cc1ccc(-c2nnc(N3CCN(c4ccccn4)CC3)c3ccccc23)cc1 | 32.6 µM [falling, partial curve, poor fit] | –
C=CCOc1c2ccc(C(=O)NCc3ccc(OC)cc3)cc2nn1C | 3.98 µM [rising, full curve, poor fit] | –
O=C1c2ccccc2C(=O)N1/N=C/c1ccc(O)c(O)c1O | 0.112 µM [rising, full curve, poor fit] | –
O=C(Nc1ccccc1Cl)N1CCN(c2ccccn2)CC1 | 23.1 µM [falling, single point] | –
O=C(CCN1C(=O)/C(=C\c2ccccc2)SC1=S)N1CCOCC1 | 5.62 µM [falling, single point] | –
COC(=O)C1CCN(C(=O)COC(=O)c2cc(-c3ccccc3)nc3ccc(OC)cc23)CC1 | 6.51 µM [rising, full curve, poor fit] | –
Cc1nn(CCCC(=O)Nc2cccnc2Cl)c(C)c1[N+](=O)[O-] | 35.5 µM [falling, single point] | –
Cc1nc(SCc2ccc([N+](=O)[O-])cc2)nc2ccccc12 | 4.61 µM [rising, full curve, poor fit] | –
CCOc1ccc(NC(=O)COC(=O)c2n[nH]c3ccccc23)cc1 | 29.1 µM [falling, single point] | –
O=C(CS(=O)(=O)c1c[nH]c2ccccc12)NC1CCCCC1 | 29.1 µM [falling, single point] | –
Cc1cc2c(ccc3[nH]onc32)n1 | 11.2 µM [falling, partial curve, poor fit] | –
COc1ccccc1C1CC(c2ccco2)=NN1S(C)(=O)=O (stereo unspecified) | 7.94 µM [rising, partial curve] | –
CCOc1ccc(CCNC(=O)CCN2N=C(c3ccc(OC)cc3)CCC2=O)cc1OCC | 2.51 µM [rising, full curve] | –
Cc1ccc(Nc2nc(-c3ccccc3)c(CC(=O)O)s2)cc1 | 22.4 µM [falling, single point] | –
COc1ccccc1-n1cnc2cc(NS(=O)(=O)c3ccc(Br)cc3)ccc21 | 11.6 µM [falling, partial curve, poor fit] | –
OC(CNCc1ccc2c(c1)OCO2)COc1ccc(F)cc1 (stereo unspecified) | 6.31 µM [falling, single point] | –
O=C(CCc1nc2ccccc2c(=O)[nH]1)OCc1ccccc1F | 20.6 µM [falling, partial curve, poor fit] | –

Single records (already shown). Order of values: AC50 [1] | AC50 (measured here: IkBa-CBG green luminescence)
C=CCOc1c2ccc(C(=O)NCc3ccc(OC)cc3)cc2nn1C reads 3.98 µM [rising, full curve, poor fit] | –
Cc1ccc(-c2nnc(N3CCN(c4ccccn4)CC3)c3ccccc23)cc1 reads 32.6 µM [falling, partial curve, poor fit] | –
COC(=O)C1CCN(C(=O)COC(=O)c2cc(-c3ccccc3)nc3ccc(OC)cc23)CC1 reads 6.51 µM [rising, full curve, poor fit] | –
